The other results are listed elsewhere or left out.
Columns and labels:
Test in all cases: log2 fold change, soluble protein after heating vs DMSO (PISA); higher = thermal stabilisation; K562 lysate, 10 uM; active = over 0.2 and 3.5 SD of the protein, either way, in both replicates (recomputed)
[1] = compound: C#Cc1cccc(Nc2ncnc3cc(OCCOC)c(OCCOC)cc23)c1 [erlotinib]
In short: (§1)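 Log-two fold change in thermal stability relative to solvent controls is reported from duplicates. For each sample, crude K562 extract from dounce-homogenised pellets in PBS pH 7.4 with 1 mM MgCl2, at 1 mg/mL protein, was treated with 10 μM compound for 30 min. Aliquots heated for 3 min across 48°C-58°C were pooled, brought to 0.5% NP-40 at 4°C and cleared at 21,000xg for 90 min. The supernatant was quantified by TMTpro 16plex LC-MS/MS with channel sums equalised.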

By UniProt entry, the sequences of proteins in these tests, tags left out. Where a name states a change or a piece, a line headed by the entry shows the natural chain unless it says otherwise.
UniProt Q13395: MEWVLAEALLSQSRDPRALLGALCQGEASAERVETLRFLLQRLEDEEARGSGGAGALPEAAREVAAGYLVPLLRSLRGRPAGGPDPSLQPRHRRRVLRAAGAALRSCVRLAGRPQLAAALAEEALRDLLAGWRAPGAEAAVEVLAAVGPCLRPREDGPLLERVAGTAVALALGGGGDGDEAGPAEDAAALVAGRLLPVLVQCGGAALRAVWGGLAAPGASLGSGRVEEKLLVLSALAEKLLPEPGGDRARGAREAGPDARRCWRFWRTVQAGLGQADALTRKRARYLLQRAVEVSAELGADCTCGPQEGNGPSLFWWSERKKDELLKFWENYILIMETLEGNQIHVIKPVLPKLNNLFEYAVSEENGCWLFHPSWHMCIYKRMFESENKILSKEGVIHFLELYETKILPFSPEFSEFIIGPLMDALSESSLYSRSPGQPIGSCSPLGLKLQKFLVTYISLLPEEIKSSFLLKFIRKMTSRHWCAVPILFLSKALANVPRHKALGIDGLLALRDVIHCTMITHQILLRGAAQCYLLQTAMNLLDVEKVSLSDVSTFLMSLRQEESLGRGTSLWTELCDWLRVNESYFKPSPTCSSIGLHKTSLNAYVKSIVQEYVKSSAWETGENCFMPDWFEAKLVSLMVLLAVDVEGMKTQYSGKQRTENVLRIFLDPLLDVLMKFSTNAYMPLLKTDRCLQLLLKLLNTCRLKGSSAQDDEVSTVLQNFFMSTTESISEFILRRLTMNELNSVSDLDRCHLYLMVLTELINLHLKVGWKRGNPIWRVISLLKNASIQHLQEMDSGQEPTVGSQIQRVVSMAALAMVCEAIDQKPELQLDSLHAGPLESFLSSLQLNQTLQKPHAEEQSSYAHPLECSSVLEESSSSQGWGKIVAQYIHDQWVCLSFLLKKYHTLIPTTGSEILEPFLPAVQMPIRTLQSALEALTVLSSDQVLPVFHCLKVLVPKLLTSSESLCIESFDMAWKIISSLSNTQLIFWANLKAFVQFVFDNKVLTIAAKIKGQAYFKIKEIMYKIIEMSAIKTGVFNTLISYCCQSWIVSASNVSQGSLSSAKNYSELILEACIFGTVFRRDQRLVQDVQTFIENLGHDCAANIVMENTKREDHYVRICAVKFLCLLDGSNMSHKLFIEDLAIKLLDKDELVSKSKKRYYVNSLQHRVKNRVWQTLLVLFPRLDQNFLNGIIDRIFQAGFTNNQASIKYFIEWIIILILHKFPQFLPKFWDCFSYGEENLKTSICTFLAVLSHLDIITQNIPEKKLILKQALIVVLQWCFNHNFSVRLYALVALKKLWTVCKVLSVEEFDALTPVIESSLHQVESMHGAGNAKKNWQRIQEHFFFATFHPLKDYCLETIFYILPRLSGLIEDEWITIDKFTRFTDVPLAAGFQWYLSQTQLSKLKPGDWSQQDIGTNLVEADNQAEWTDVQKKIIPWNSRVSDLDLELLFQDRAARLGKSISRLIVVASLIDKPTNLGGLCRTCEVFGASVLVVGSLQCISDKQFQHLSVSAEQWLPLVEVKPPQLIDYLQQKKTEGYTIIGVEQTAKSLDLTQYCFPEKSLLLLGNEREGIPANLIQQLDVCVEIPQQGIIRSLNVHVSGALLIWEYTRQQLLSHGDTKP
UniProt Q99081: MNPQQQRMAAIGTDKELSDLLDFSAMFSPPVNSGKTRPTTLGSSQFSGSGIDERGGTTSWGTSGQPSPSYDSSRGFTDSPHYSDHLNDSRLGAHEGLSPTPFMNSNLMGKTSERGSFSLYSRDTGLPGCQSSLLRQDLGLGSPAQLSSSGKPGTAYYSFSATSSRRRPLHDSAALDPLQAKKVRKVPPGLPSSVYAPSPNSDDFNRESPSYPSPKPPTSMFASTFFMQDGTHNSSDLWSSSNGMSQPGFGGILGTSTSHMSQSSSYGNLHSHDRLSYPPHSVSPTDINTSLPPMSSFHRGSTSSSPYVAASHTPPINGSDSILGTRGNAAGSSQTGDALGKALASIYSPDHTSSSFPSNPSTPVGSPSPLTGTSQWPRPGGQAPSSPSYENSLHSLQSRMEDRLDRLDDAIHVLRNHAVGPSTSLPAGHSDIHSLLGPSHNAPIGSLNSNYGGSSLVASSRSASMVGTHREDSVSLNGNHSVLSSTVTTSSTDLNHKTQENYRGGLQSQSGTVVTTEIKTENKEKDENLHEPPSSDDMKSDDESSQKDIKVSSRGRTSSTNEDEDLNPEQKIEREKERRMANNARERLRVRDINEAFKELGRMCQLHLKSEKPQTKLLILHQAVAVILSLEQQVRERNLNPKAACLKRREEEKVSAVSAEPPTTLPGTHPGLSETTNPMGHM
UniProt Q8TC07: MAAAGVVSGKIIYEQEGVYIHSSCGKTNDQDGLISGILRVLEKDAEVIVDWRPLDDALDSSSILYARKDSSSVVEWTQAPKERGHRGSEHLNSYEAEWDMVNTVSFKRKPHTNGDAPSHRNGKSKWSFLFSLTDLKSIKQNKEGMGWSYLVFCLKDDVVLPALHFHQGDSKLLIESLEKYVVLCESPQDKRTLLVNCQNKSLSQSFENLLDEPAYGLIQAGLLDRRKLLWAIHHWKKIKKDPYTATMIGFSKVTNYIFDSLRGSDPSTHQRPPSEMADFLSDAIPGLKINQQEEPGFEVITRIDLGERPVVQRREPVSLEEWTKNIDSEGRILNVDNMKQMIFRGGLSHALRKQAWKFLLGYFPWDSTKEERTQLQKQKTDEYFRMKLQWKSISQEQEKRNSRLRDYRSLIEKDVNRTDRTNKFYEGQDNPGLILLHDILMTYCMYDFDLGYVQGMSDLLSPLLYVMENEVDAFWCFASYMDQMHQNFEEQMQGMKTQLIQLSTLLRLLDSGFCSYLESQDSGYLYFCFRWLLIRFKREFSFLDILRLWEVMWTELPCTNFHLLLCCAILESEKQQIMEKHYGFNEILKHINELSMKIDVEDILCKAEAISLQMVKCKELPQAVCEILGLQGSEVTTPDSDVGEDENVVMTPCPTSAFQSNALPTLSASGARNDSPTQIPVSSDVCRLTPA
UniProt A2RTX5: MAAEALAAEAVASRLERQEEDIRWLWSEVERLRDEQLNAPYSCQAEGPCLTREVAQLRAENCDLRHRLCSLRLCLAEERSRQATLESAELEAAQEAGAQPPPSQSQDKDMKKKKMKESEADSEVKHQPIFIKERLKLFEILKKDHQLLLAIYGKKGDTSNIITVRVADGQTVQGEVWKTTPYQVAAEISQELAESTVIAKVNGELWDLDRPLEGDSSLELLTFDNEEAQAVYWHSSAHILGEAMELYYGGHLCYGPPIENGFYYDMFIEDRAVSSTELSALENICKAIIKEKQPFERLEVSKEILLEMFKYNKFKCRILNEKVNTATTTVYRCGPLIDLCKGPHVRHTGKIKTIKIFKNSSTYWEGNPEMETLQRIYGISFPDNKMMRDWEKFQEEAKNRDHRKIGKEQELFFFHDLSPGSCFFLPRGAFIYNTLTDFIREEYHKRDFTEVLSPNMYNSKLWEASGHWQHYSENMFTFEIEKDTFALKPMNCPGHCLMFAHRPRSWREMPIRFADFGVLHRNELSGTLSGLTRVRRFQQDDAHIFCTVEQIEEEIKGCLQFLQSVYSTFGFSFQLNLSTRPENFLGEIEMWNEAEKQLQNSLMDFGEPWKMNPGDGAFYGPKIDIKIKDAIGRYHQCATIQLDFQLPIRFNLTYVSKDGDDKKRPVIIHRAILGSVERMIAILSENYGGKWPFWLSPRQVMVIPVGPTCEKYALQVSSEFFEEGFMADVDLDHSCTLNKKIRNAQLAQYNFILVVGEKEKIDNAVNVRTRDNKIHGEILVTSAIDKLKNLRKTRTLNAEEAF
UniProt Q9Y2W6: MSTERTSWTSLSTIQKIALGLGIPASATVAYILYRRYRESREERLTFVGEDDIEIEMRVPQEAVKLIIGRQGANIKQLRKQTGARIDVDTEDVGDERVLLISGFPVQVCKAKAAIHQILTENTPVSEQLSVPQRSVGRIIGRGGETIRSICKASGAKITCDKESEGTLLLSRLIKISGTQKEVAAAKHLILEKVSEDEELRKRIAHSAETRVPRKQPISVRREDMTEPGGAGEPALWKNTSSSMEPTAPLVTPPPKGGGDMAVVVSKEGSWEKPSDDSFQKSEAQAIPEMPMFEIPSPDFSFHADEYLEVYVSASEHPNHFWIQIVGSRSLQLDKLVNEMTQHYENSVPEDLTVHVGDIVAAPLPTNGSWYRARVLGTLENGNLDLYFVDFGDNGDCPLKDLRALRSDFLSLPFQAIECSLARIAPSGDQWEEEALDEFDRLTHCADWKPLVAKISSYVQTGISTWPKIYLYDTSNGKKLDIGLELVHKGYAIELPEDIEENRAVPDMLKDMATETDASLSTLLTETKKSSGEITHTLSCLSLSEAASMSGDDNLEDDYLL
UniProt Q00059: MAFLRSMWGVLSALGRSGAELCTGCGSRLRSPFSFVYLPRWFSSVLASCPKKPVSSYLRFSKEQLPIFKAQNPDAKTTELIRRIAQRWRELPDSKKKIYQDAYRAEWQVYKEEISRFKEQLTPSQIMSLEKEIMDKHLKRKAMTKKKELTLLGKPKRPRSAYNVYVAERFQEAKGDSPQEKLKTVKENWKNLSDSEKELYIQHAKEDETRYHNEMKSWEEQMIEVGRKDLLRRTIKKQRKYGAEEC
UniProt Q9NUY8: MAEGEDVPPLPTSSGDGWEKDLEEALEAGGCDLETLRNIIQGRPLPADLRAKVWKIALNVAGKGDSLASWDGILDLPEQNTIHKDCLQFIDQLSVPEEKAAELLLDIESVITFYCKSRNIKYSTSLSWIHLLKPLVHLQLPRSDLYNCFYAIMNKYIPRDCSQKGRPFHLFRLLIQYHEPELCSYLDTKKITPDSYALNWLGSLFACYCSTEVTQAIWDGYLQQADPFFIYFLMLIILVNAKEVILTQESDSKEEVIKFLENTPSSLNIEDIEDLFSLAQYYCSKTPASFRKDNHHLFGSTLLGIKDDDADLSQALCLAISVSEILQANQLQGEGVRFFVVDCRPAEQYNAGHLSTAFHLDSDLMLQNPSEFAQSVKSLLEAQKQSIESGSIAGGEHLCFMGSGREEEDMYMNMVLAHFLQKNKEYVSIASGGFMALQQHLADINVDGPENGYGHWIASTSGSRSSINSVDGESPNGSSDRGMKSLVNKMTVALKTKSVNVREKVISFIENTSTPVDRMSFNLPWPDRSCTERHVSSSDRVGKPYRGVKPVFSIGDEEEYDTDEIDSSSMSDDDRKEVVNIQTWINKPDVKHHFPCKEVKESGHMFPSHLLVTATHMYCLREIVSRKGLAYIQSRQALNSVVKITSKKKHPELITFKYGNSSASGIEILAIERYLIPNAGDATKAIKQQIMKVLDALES
UniProt Q12800: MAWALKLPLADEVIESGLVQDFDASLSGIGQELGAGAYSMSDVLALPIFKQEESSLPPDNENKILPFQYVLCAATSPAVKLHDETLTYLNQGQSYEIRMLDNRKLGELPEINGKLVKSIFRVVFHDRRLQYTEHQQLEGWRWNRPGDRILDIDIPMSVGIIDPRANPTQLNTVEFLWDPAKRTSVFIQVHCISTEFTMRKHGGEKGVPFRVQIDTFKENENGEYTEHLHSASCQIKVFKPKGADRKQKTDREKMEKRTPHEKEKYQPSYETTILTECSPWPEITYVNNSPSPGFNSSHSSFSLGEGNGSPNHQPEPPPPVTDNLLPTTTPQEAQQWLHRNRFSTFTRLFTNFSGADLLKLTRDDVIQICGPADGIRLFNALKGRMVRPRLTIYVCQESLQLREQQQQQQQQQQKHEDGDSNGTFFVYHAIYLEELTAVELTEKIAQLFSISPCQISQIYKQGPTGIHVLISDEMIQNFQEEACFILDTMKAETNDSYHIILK
UniProt Q01664: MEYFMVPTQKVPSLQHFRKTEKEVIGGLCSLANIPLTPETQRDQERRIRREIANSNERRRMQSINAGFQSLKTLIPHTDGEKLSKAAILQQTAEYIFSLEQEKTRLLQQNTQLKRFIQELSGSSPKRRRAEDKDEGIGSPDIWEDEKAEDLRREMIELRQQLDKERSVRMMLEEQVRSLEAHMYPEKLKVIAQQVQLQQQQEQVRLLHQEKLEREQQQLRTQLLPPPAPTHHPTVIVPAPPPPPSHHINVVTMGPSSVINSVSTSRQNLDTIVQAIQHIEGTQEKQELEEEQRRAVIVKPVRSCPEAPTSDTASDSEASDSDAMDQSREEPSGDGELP
UniProt Q6P1N9: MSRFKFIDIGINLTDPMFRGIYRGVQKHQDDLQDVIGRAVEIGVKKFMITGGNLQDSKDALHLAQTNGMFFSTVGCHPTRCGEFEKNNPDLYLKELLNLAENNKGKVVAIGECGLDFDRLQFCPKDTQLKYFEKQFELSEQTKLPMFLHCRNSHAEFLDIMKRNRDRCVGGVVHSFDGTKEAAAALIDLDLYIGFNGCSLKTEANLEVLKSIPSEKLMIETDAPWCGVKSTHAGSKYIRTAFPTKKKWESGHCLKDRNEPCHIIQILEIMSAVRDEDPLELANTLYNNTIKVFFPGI

[2] = compound: C/C(=N\NC(=O)C1=CC(=CC=C1)S(=O)(=O)N2CCOCC2)/C3=C(C=CC(=C3)Cl)O
In short: as §1

[3] = compound: C1=CC(=CC=C1C2=NC3=C(N2)C=C(C=C3)C(=O)N)OC4=CC=C(C=C4)Cl
In short: as §1

[4] = compound: C1=CC2=C(C=CC(=C2)/C=C\3/C(=O)NC(=NCC4=CC=CS4)S3)N=C1
In short: as §1

[5] = compound: C1=CC2=NC=CN=C2C=C1/C=C/3\C(=O)NC(=O)S3
In short: as §1

[6] = compound: C1=CC=C(C=C1)C2=NC(=C(N2)C3=CC=NC=C3)C4=CC(=C(C=C4)Cl)O
In short: as §1

[7] = compound: C1=CC=C2C(=C1)C3=NNC4=CC=CC(=C43)C2=O
In short: as §1

[8] = compound: C1CCN(C1)C(=O)NC2=CC=CC(=C2)NC3=NC=C(C(=N3)NCCC4=CN=CN4)Br
In short: as §1

[9] = compound: C1CN(CCC1(CC2=CC=C(C=C2)Cl)N)C3=NC=NC4=C3C=CN4
In short: as §1

[10] = compound: C1COCCN1CCN2C3=CC=CC=C3N=C2NC(=O)C4=CC(=CC=C4)[N+](=O)[O-] [IRAK-1-4 Inhibitor I]
In short: as §1

[11] = compound: C=CC(=O)N1CCC[C@@H](n2nc(-c3ccc(Oc4ccccc4)cc3)c3c(N)ncnc32)C1 [ibrutinib]
In short: as §1

[12] = compound: CC(=O)c1cnc2ccc(-c3cc(Cl)c(O)c(Cl)c3)nc2c1N[C@H]1CC[C@H](CN(C)C)CC1
In short: as §1

[13] = compound: CC(C)(C)Cn1c(N)nc2ccc(-c3[nH]c(C(C)(C)C)nc3-c3ccc(F)cc3)nc21 [ralimetinib]
In short: as §1

[14] = compound: CC(C)(O)CC(=O)NCCn1ccc2ncnc(Nc3ccc(Oc4cccc(C(F)(F)F)c4)c(Cl)c3)c21
In short: as §1

[15] = compound: CC(C)C1=C2N=C(C=C(N2N=C1)NCC3=CC=CC=C3)NCCCCCCN
In short: as §1

[16] = compound: CC1=C(C(CC(=O)N1)C2=CC=C(C=C2)C(F)(F)F)C(=O)NC3=C(C=C4C(=C3)C=NN4)F
In short: as §1

[17] = compound: CC1=C(C2=C(C=C1)C(=O)C3=CC=CC=C3N2CCCN)C
In short: as §1

[18] = compound: CC1=C(C=C(C=C1)NC(=O)C2=CC(=CC=C2)C(C)(C)C#N)NC3=CC4=C(C=C3)N=CN(C4=O)C
In short: as §1

[19] = compound: CC1=C(C=C(C=C1)NC(=O)C2=CC(=CC=C2)N(C)C)NC(=O)C3=CC=C(C=C3)O
In short: as §1

[20] = compound: CC1=CC=C(C=C1)SC2=C3C=C(SC3=CN=C2)C(=O)N
In short: as §1

Measured: log2 fold change

TARBP1 (UniProt Q13395)
inactive: [1] 0.134 | [2] 0.047 | [3] -0.02 | [4] 0.051 | [5] -0.059 | [6] 0.044 | [7] -0.048 | [8] 0.007 | [9] 0.034 | [10] 0.084 | [11] -0.021 | [12] 0.036 | [13] 0.162 | [14] 0.03 | [15] -0.051 | [16] -0.027 | [17] -0.077 | [18] 0.002 | [19] 0.035 | [20] -0.036

TCF12 isoform 3 (UniProt Q99081)
inactive: [1] -0.001 | [2] -0.025 | [3] 0.081 | [4] 0.006 | [5] -0.004 | [6] -0.017 | [7] 0.003 | [8] -0.063 | [9] 0.006 | [10] 0.051 | [11] 0.059 | [12] -0.029 | [13] -0.022 | [14] -0.054 | [15] 0.002 | [16] -0.008 | [17] 0.064 | [18] -0.008 | [19] 0.011 | [20] 0.109

TBC1D15 isoform 3 (UniProt Q8TC07)
inactive: [1] 0.008 | [2] -0.07 | [3] -0.03 | [4] 0.011 | [5] 0.012 | [6] -0.001 | [7] -0.003 | [8] 0.004 | [9] -0.013 | [10] 0.008 | [11] 0.014 | [12] 0.01 | [13] -0.013 | [14] -0.01 | [15] -0.002 | [16] 0.007 | [17] -0.006 | [18] 0.009 | [19] 0.002 | [20] 0.017

TARSL2 (UniProt A2RTX5)
inactive: [1] -0.018 | [2] -0.056 | [3] 0.029 | [4] 0.028 | [5] -0.008 | [6] -0.004 | [7] -0.027 | [8] -0.007 | [9] 0.012 | [10] -0.002 | [11] -0.009 | [12] -0.008 | [13] -0.011 | [14] -0.01 | [15] -0.026 | [16] -0.037 | [17] -0.037 | [18] 0.023 | [19] 0.043 | [20] 0.004

TATDN2 (UniProt Q93075)
inactive: [1] 0.104 | [2] 0.036 | [3] -0.108 | [4] -0.025 | [5] -0.138 | [6] 0.019 | [7] -0.02 | [8] -0.038 | [9] -0.031 | [10] 0.011 | [11] 0.008 | [12] -0.114 | [13] -0.03 | [14] -0.045 | [15] -0.092 | [16] 0.018 | [17] -0.003 | [18] -0.008 | [19] 0.032 | [20] 0.019

TCIRG1 (UniProt Q13488)
inactive: [1] 0.018 | [2] 0.145 | [3] 0.145 | [4] 0.028 | [5] -0.028 | [6] 0.012 | [7] -0.008 | [8] -0.027 | [9] -0.145 | [10] -0.033 | [11] -0.02 | [12] -0.038 | [13] 0.012 | [14] -0.152 | [15] 0.024 | [16] 0.01 | [17] 0.041 | [18] -0.051 | [19] -0.185 | [20] -0.007

TFPI (UniProt P10646)
inactive: [1] -0.069 | [2] 0.093 | [3] 0.011 | [4] 0.089 | [5] -0.141 | [6] -0.02 | [7] -0.232 | [8] -0.096 | [9] 0.065 | [10] 0.003 | [11] 0.024 | [12] 0.035 | [13] 0.046 | [14] -0.003 | [15] -0.011 | [16] -0.042 | [18] 0.021 | [19] -0.027 | [20] 0.073

TDRKH (UniProt Q9Y2W6)
inactive: [1] -0.067 | [2] 0.023 | [3] -0.017 | [4] -0.018 | [5] -0.065 | [6] 0.02 | [7] -0.086 | [8] -0.011 | [9] -0.022 | [10] 0.047 | [11] -0.028 | [12] -0.023 | [13] 0.033 | [14] -0.027 | [15] -0.02 | [16] 0.003 | [17] -0.008 | [18] -0.006 | [19] -0.005 | [20] -0.035

Copied from the listing (2 entries):
TFPI (UniProt P10646)
inactive: [1] -0.069 | [2] 0.093 | [3] 0.011 | [4] 0.089 | [5] -0.141 | [6] -0.02 | [7] -0.232 | [8] -0.096 | [9] 0.065 | [10] 0.003 | [11] 0.024 | [12] 0.035 | [13] 0.046 | [14] -0.003 | [15] -0.011 | [16] -0.042 | [18] 0.021 | [19] -0.027 | [20] 0.073

TDRKH (UniProt Q9Y2W6)
inactive: [1] -0.067 | [2] 0.023 | [3] -0.017 | [4] -0.018 | [5] -0.065 | [6] 0.02 | [7] -0.086 | [8] -0.011 | [9] -0.022 | [10] 0.047 | [11] -0.028 | [12] -0.023 | [13] 0.033 | [14] -0.027 | [15] -0.02 | [16] 0.003 | [17] -0.008 | [18] -0.006 | [19] -0.005 | [20] -0.035

Next part

TAX1BP1 (UniProt Q86VP1)
inactive: [1] 0.022 | [2] 0.038 | [3] 0.037 | [4] -0.013 | [5] -0.027 | [6] 0.014 | [7] 0.024 | [8] -0.004 | [9] -0.006 | [10] 0.006 | [11] 0.01 | [12] 0.05 | [13] 0.018 | [14] -0.035 | [15] -0.031 | [16] 0.019 | [17] 0.019 | [18] 0.007 | [19] -0.019 | [20] -0.018

TCP11L1 (UniProt Q9NUJ3)
inactive: [1] 0.082 | [2] 0.032 | [3] 0.032 | [4] 0.033 | [5] -0.053 | [6] 0.075 | [7] -0.069 | [8] -0.005 | [9] 0.094 | [10] 0.001 | [11] 0.026 | [12] -0.033 | [13] -0.093 | [14] -0.061 | [15] -0.045 | [16] -0.032 | [17] -0.052 | [18] -0.008 | [19] 0.02 | [20] -0.008

TFAM (UniProt Q00059)
inactive: [1] -0.025 | [2] 0.029 | [3] -0.022 | [4] 0.031 | [5] -0.011 | [6] 0.014 | [7] -0.03 | [8] 0.039 | [9] -0.004 | [10] -0.009 | [11] 0.014 | [12] 0 | [13] -0.043 | [14] 0.01 | [15] 0.002 | [16] -0.014 | [17] -0.118 | [18] -0.017 | [19] -0.032 | [20] 0.031

TBC1D23 (UniProt Q9NUY8)
inactive: [1] 0.003 | [2] -0.01 | [3] 0.017 | [4] 0.022 | [5] -0.015 | [6] 0.011 | [7] -0.018 | [8] -0.018 | [9] -0.001 | [10] 0 | [11] 0.034 | [12] 0.002 | [13] 0.004 | [14] -0.021 | [15] 0.03 | [16] 0.032 | [17] -0.05 | [18] 0.014 | [19] 0.012 | [20] -0.012

TAPT1 (UniProt Q6NXT6)
inactive: [1] 0 | [2] -0.092 | [3] 0.068 | [4] -0.038 | [5] -0.001 | [6] -0.059 | [7] -0.039 | [8] -0.059 | [9] 0.01 | [10] 0.002 | [11] 0.071 | [12] 0.012 | [13] -0.029 | [14] -0.07 | [15] 0.004 | [16] -0.019 | [17] -0.014 | [18] 0.09 | [19] -0.004 | [20] -0.027

TFCP2 (UniProt Q12800)
inactive: [1] -0.035 | [2] 0.08 | [3] -0.115 | [4] 0.01 | [5] -0.042 | [6] -0.007 | [7] -0.02 | [8] -0.038 | [9] -0.044 | [10] 0.035 | [11] -0.055 | [12] 0.054 | [13] 0.032 | [14] -0.028 | [15] 0.051 | [16] -0.026 | [17] 0 | [18] 0.059 | [19] -0.02 | [20] 0.026

TFAP4 (UniProt Q01664)
inactive: [1] -0.063 | [2] -0.042 | [3] 0.017 | [4] -0.025 | [5] 0.018 | [6] -0.09 | [7] 0.055 | [8] 0.135 | [9] -0.016 | [10] -0.061 | [11] 0.057 | [12] 0.141 | [13] 0.004 | [14] -0.26 | [15] -0.109 | [16] 0.046 | [18] 0.058 | [19] 0.038 | [20] 0.07

TATDN1 (UniProt Q6P1N9)
inactive: [1] -0.042 | [2] 0.019 | [3] 0.004 | [4] 0 | [5] -0.014 | [6] 0.005 | [7] -0.006 | [8] -0.014 | [9] -0.043 | [10] -0.023 | [11] -0.009 | [12] -0.019 | [13] -0.003 | [14] 0.019 | [15] 0.002 | [16] -0.034 | [17] -0.003 | [18] 0.004 | [19] 0.027 | [20] -0.016

Reference: the supplement of paper PMC10849652
